Source: PubChem BioAssay AID504744 (Drosophila RNAi Screening Center, 2011)
Aim: 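Find genes whose loss alters insulin-driven dAkt phosphorylation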 (primary screen). Cell system: Drosophila Kc167 cells. Reagents: long dsRNA against Drosophila genes, 250 ng dsRNA per well of a 384-well plate. Timing: 3 days of knock-down, then overnight serum-free starvation before stimulation. Conditions: bovine insulin at 387 nM for 10 minutes after 12 h without serum. Detection: 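In-cell antibody fluorescence for phospho-dAkt in each well over DNA-dye signal, with log2 residuals expressed as z-scores adjusted for cell count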. Hit rule: 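Hit in the insulin screen when the two-replicate mean z-score is more extreme than plus or minus 2.5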.
The screen tested about 23,000 reagents; this is a random part of those that have a named target and a result. In the full data, 98 (0.43%) are marked active. 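Only hit calls are given; the phospho-dAkt signals, z-scores and hit direction were not deposited.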 Names joined by + are all predicted targets of the reagent.

gene knocked down | DRSC id | outcome
CG31245 (GeneID 42316) | DRSC15498 | inactive
CG30187 (GeneID 246509) | DRSC22461 | inactive
CG10948 (GeneID 39459) | DRSC09806 | inactive
CG18011 (GeneID 36068) | DRSC06697 | inactive
CG18011 (GeneID 36068) | DRSC06706 | inactive
Ir68b (GeneID 39378) | DRSC10251 | inactive
CG15617 (GeneID 36871) | DRSC06570 | inactive
CG7366 (GeneID 38918) | DRSC10825 | inactive
GstD11 (GeneID 41512) | DRSC15251 | inactive
dtn (GeneID 31555) | DRSC17939 | inactive
Usp5 (GeneID 38375) | DRSC08244 | inactive
CG4854 (GeneID 42391) | DRSC15663 | inactive
CHOp24 (GeneID 31382) | DRSC18310 | inactive
CG15093 (GeneID 37166) | DRSC06522 | inactive
Nepl12 (GeneID 41172) | DRSC16411 | inactive
GstE5 (GeneID 37110) | DRSC06675 | inactive
sala (GeneID 34570) | DRSC03605 | inactive
Idgf3 (GeneID 34981) | DRSC03351 | inactive
CG7966 (GeneID 41610) | DRSC16356 | inactive
Hmx (GeneID 42110) | DRSC15884 | inactive
Hmx (GeneID 42110) | DRSC16706 | inactive
Hmx (GeneID 42110) | DRSC22799 | inactive
f-cup (GeneID 41677) | DRSC14139 | inactive
CG6654 (GeneID 41831) | DRSC16084 | inactive
mia (GeneID 40667) | DRSC12137 | inactive
CG12911 (GeneID 36081) | DRSC06226 | inactive
CG33120 (GeneID 326260) | DRSC02073 | inactive
CG1979 (GeneID 40837) | DRSC12495 | inactive
pzg (GeneID 40351) | DRSC11848 | inactive
dgrn (GeneID 40725) | DRSC12154 | inactive
RpL4 (GeneID 43349) | DRSC16833 | inactive
Ddx56 (GeneID 33118) | DRSC20567 | inactive
dila (GeneID 36010) | DRSC06607 | inactive
CG17544 (GeneID 35213) | DRSC02624 | inactive
CG5664 (GeneID 40371) | DRSC11782 | inactive
CG3434 (GeneID 39098) | DRSC10365 | inactive
CG11726 (GeneID 39275) | DRSC09858 | inactive
Alp9 (GeneID 38633) | DRSC10486 | inactive
CG5846 (GeneID 34326) | DRSC02904 | inactive
CG6184 (GeneID 42345) | DRSC15986 | inactive
CG14424 (GeneID 31279) | DRSC18472 | inactive
Lip2 (GeneID 43980) | DRSC02577 | inactive
Lip2 (GeneID 43980) | DRSC02578 | inactive
Fer2LCH (GeneID 44965) | DRSC16672 | inactive
GstE6 (GeneID 37111) | DRSC06676 | inactive
CG32271 (GeneID 38392) | DRSC08198 | inactive
Hex-C (GeneID 44008) | DRSC07079 | inactive
CAH13 (GeneID 36126) | DRSC06128 | inactive
Pgant1 (GeneID 36717) | DRSC07095 | inactive
rsh (GeneID 32253) | DRSC18966 | inactive
rsh (GeneID 32253) | DRSC19816 | inactive
CG14340 (GeneID 33287) | DRSC00370 | inactive
Hsepi (GeneID 35569) | DRSC04986 | inactive
Tsp29Fb (GeneID 34212) | DRSC03233 | inactive
mRpL17 (GeneID 38046) | DRSC08350 | inactive
Nepl19 (GeneID 43411) | DRSC14875 | inactive
Nipped-A (GeneID 35483) | DRSC04882 | inactive
Nipped-A (GeneID 35483) | DRSC04883 | inactive
Nipped-A (GeneID 35483) | DRSC04884 | inactive
Nipped-A (GeneID 35483) | DRSC07738 | inactive
Nipped-A (GeneID 35483) | DRSC22386 | inactive
Saf6 (GeneID 33255) | DRSC00633 | inactive
CG33770 (GeneID 3772256) | DRSC11717 | inactive
CG4820 (GeneID 41344) | DRSC15654 | inactive
CycK (GeneID 49816) | DRSC03714 | inactive
PMCA (GeneID 43787) | DRSC17113 | inactive
PMCA (GeneID 43787) | DRSC17114 | inactive
PMCA (GeneID 43787) | DRSC17154 | inactive
lbl (GeneID 42541) | DRSC16986 | inactive
ab (GeneID 34560) | DRSC03478 | inactive
CG13601 (GeneID 42826) | DRSC14604 | inactive
brn (GeneID 31358) | DRSC18746 | inactive
CG8892 (GeneID 33719) | DRSC03121 | inactive
MESR4 (GeneID 36986) | DRSC06901 | inactive
Set1 (GeneID 3354971) | DRSC20930 | inactive
Set1 (GeneID 3354971) | DRSC20931 | inactive
Sobp (GeneID 36260) | DRSC07312 | inactive
aos (GeneID 39833) | DRSC11323 | inactive
Vha68-3 (GeneID 34695) | DRSC02809 | inactive
CG31817 (GeneID 260659) | DRSC01537 | inactive
CG31817 (GeneID 260659) | DRSC01538 | inactive
CG31817 (GeneID 260659) | DRSC22476 | inactive
Cyp4d21 (GeneID 34036) | DRSC03305 | inactive
baf (GeneID 34095) | DRSC03051 | inactive
Sc2 (GeneID 38457) | DRSC08162 | inactive
Tsp42Ek (GeneID 35621) | DRSC06187 | inactive
Ncc69 (GeneID 39410) | DRSC10412 | inactive
Ncc69 (GeneID 39410) | DRSC10413 | inactive
PGRP-LC (GeneID 39063) | DRSC08980 | inactive
PGRP-LC (GeneID 39063) | DRSC10416 | inactive
PGRP-LC (GeneID 39063) | DRSC10417 | inactive
PGRP-LE (GeneID 32534) | DRSC20137 | inactive
eIF2A (GeneID 40431) | DRSC11825 | inactive
grh (GeneID 37038) | DRSC05680 | inactive
grh (GeneID 37038) | DRSC05683 | inactive
grh (GeneID 37038) | DRSC07624 | inactive
grh (GeneID 37038) | DRSC07625 | inactive
Fancm (GeneID 42543) | DRSC16348 | inactive
HisCl1 (GeneID 41426) | DRSC14945 | inactive
CG13312 (GeneID 39010) | DRSC09983 | inactive
cyp33 + CG34194 | DRSC05666 | inactive
CG15533 (GeneID 43612) | DRSC15069 | inactive
Mrm2 (GeneID 42359) | DRSC14310 | inactive
CG31200 (GeneID 326124) | DRSC15285 | inactive
schuy (GeneID 40184) | DRSC10284 | inactive

The list goes on; the last 4 above are carried over.
gene knocked down | DRSC id | outcome
CG15533 (GeneID 43612) | DRSC15069 | inactive
Mrm2 (GeneID 42359) | DRSC14310 | inactive
CG31200 (GeneID 326124) | DRSC15285 | inactive
schuy (GeneID 40184) | DRSC10284 | inactive
cutlet (GeneID 44637) | DRSC00284 | inactive
RabX5 (GeneID 38209) | DRSC08608 | inactive
Trax (GeneID 41871) | DRSC15709 | inactive
CG12402 (GeneID 41714) | DRSC14508 | inactive
tok (GeneID 42944) | DRSC17087 | inactive
bnl (GeneID 42356) | DRSC13377 | inactive
bnl (GeneID 42356) | DRSC16913 | inactive
Tep5Psi (GeneID 35250) | DRSC02183 | inactive
Tep5Psi (GeneID 35250) | DRSC02184 | inactive
CG16894 (GeneID 37280) | DRSC06634 | inactive
CG16894 (GeneID 37280) | DRSC21785 | inactive
CG3655 (GeneID 31056) | DRSC17676 | inactive
CG3655 (GeneID 31056) | DRSC18181 | inactive
CG3655 (GeneID 31056) | DRSC18477 | inactive
CG3655 (GeneID 31056) | DRSC22688 | inactive
CG8833 (GeneID 39535) | DRSC11050 | inactive
l(2)SH0834 (GeneID 34386) | DRSC02854 | inactive
Hr78 (GeneID 40378) | DRSC11866 | inactive
ImpL1 (GeneID 39499) | DRSC11197 | inactive
Oatp26F (GeneID 33927) | DRSC02149 | inactive
Oatp26F (GeneID 33927) | DRSC02272 | inactive
Oatp26F (GeneID 33927) | DRSC02695 | inactive
Octbeta2R (GeneID 41549) | DRSC15350 | inactive
Octbeta2R (GeneID 41549) | DRSC16165 | inactive
pie (GeneID 44315) | DRSC03590 | inactive
BomBc1 (GeneID 37099) | DRSC06501 | inactive
CG15035 (GeneID 31673) | DRSC17967 | inactive
Grl62a (GeneID 7354373) | DRSC07963 | inactive
CG12995 (GeneID 32707) | DRSC19515 | inactive
sut1 (GeneID 35774) | DRSC07700 | inactive
CG13082 (GeneID 35244) | DRSC02186 | inactive
CG4066 (GeneID 41493) | DRSC15541 | inactive
OstDelta (GeneID 37029) | DRSC06980 | inactive
CG32640 + CG32641 | DRSC22885 | inactive
Mlh1 (GeneID 35796) | DRSC07473 | inactive
Chsy (GeneID 32497) | DRSC20175 | inactive
Chsy (GeneID 32497) | DRSC20176 | inactive
nis (GeneID 33337) | DRSC00290 | inactive
CG11112 (GeneID 35658) | DRSC06038 | inactive
tx (retired record) (GeneID 44875) | DRSC16931 | inactive
pod1 (GeneID 31620) | DRSC18362 | inactive
CG6067 (GeneID 31529) | DRSC18399 | inactive
CG13671 (GeneID 38932) | DRSC10030 | inactive
CG32485 (GeneID 38363) | DRSC22666 | inactive
CG6763 (GeneID 42754) | DRSC16110 | inactive
mRpL9 (GeneID 41859) | DRSC15678 | inactive
CG5107 (GeneID 43084) | DRSC15716 | inactive
Uev1A (GeneID 38613) | DRSC09763 | inactive
alpha-Man-IIb (GeneID 41913) | DRSC16898 | inactive
CG5282 (GeneID 40256) | DRSC11775 | inactive
Prosalpha1R + Prosalpha1 | DRSC07515 | inactive
rho-4 (GeneID 32109) | DRSC19761 | inactive
rho-4 (GeneID 32109) | DRSC19762 | inactive
